Measurements taken from the supplement of paper PMC10849652.
The other results are listed elsewhere or left out.

The chains behind the UniProt entries cited, without tags or fusion partners. Where a name states a change or a piece, a line headed by the entry shows the natural chain unless it says otherwise.
UniProt P28289: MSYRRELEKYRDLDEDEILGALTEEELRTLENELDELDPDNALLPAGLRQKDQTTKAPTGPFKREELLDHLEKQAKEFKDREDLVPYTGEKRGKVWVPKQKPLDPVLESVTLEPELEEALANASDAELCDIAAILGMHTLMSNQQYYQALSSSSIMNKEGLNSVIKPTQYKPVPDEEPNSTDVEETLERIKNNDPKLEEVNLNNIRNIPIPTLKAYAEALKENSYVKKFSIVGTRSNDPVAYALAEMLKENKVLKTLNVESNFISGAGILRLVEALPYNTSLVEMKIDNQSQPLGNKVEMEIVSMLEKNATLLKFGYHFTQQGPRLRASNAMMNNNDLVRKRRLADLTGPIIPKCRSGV
UniProt Q96B49: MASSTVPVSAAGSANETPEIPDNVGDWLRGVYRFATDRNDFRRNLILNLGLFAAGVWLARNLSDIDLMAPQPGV
UniProt Q9P0T7: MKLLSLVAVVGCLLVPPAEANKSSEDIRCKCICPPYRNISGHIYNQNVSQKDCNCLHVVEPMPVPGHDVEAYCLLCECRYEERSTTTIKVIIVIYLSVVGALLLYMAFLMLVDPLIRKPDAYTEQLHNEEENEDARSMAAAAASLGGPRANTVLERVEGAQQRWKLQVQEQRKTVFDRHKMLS
UniProt O95271: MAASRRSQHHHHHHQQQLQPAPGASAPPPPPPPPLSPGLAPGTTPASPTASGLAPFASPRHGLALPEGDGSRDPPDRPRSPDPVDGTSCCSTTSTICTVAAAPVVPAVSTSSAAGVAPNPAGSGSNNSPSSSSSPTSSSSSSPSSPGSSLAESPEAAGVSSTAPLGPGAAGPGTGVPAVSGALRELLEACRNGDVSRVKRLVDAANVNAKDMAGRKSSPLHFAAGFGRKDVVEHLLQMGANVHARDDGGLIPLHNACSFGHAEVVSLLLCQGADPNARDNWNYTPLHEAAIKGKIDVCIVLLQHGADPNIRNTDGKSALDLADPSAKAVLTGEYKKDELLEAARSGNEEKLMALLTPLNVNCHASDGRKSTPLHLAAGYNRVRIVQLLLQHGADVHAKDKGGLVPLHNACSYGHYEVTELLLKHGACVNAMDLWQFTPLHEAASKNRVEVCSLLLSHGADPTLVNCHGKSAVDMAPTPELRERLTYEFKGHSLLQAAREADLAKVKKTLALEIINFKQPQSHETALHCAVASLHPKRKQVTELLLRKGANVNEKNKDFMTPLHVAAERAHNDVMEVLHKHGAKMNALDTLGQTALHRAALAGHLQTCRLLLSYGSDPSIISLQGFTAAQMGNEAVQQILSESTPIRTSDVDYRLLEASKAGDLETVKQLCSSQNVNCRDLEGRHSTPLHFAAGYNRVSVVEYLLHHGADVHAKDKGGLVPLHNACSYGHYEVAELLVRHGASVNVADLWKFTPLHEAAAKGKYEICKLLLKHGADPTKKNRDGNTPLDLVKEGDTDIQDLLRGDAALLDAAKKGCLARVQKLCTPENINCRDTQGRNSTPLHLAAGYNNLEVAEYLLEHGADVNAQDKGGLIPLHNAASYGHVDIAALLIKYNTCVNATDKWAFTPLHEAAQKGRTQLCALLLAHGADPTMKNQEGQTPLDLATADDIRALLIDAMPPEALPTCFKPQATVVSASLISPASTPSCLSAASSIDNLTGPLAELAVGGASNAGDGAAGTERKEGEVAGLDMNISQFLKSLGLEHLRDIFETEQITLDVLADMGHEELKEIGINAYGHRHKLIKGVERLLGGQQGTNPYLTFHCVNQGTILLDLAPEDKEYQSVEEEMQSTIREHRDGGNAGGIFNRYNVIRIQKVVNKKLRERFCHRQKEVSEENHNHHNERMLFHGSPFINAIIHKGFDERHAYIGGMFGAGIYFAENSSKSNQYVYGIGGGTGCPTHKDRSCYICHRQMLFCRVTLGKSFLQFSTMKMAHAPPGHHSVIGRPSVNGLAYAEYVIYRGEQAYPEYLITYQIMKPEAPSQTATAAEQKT
UniProt P02585, whole entry, looked up: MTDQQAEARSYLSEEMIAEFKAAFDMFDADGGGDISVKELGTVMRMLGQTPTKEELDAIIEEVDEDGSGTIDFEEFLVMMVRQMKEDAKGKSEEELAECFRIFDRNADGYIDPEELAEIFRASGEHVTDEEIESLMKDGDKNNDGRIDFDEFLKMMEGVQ
UniProt Q8NFZ5: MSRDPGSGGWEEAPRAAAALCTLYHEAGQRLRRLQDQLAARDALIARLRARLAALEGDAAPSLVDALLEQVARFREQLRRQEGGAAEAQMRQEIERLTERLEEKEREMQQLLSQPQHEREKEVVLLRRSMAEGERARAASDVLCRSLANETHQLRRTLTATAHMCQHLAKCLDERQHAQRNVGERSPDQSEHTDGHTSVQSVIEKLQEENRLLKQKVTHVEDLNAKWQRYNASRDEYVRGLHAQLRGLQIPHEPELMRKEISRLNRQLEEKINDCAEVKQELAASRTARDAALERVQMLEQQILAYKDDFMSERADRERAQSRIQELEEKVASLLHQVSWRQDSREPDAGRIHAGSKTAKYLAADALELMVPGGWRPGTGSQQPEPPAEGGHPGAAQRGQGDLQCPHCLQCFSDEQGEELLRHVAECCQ
UniProt Q96HH6: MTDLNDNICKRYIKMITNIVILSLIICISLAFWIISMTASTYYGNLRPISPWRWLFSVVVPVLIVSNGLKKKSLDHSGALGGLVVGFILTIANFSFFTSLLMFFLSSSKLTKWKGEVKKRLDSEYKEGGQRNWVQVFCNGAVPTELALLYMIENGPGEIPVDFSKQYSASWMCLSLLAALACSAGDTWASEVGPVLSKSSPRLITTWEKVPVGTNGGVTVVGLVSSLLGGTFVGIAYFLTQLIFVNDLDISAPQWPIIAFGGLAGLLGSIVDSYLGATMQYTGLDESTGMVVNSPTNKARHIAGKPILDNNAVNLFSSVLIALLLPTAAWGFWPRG
UniProt O60784, whole entry, looked up: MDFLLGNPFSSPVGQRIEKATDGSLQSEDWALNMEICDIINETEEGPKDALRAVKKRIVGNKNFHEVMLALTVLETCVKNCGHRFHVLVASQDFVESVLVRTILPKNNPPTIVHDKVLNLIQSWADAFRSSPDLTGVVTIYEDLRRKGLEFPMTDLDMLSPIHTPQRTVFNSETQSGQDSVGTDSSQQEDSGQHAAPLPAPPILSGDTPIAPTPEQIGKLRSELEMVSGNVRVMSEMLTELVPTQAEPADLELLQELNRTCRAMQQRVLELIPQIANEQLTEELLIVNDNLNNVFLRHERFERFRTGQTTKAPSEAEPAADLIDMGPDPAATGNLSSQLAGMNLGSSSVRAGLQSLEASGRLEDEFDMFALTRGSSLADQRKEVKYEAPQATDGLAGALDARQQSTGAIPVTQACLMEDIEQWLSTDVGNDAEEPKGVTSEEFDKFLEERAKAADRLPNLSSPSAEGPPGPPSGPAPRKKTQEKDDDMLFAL
UniProt Q6NUQ4: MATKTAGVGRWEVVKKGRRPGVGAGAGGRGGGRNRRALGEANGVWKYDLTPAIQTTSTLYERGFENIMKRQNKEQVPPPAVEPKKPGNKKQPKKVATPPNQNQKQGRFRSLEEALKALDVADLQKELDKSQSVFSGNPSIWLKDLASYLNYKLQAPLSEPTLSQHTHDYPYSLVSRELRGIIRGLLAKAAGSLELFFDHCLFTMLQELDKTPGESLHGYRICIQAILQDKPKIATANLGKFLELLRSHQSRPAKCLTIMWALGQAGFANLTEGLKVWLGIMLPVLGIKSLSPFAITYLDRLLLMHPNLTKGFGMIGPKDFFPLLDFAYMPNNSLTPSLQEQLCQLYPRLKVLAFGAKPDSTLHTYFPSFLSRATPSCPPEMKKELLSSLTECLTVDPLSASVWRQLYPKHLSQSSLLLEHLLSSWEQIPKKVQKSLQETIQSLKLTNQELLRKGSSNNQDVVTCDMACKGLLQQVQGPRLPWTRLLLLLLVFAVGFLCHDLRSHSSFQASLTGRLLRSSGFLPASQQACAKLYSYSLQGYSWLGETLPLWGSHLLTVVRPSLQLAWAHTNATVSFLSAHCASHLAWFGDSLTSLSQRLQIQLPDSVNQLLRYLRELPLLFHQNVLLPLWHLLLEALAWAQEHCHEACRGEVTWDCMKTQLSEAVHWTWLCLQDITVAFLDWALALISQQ
UniProt Q12767: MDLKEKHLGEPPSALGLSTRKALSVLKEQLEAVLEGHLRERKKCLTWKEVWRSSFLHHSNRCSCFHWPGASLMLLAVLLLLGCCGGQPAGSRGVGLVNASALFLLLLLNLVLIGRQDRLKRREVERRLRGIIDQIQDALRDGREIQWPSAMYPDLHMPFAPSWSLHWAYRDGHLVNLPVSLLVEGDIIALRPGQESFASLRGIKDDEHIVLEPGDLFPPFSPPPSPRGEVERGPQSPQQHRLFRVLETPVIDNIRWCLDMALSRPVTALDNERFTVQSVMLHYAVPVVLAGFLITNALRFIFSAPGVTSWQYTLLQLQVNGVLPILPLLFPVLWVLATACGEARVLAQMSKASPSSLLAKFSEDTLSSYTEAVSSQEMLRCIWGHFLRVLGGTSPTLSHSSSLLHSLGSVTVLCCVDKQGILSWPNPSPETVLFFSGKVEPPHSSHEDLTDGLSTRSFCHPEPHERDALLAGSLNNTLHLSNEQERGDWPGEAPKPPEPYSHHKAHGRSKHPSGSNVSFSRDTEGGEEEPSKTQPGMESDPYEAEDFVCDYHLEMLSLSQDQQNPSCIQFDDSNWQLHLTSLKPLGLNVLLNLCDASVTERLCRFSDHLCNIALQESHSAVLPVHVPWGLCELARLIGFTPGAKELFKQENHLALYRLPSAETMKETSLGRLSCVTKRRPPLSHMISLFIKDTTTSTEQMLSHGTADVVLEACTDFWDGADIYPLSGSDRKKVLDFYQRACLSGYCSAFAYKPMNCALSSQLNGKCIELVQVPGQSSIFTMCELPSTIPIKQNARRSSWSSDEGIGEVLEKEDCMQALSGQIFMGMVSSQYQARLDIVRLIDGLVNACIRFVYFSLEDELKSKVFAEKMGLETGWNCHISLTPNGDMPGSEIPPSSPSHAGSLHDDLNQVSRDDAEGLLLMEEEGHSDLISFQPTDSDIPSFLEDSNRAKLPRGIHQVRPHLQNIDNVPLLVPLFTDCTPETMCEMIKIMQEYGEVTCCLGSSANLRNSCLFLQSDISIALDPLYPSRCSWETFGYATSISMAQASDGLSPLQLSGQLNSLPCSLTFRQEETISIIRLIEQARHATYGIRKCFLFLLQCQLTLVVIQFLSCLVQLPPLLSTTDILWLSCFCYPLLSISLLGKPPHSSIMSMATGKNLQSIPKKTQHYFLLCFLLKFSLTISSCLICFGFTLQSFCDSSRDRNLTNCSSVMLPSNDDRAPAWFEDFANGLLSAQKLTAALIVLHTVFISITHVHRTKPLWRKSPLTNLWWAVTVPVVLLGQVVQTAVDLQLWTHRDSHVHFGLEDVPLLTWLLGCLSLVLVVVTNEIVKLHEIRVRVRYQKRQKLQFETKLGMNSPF

Experiments:
Test in all cases: log2 fold change, soluble protein after heating vs DMSO (PISA); higher = thermal stabilisation; K562 lysate, 10 uM; active = over 0.2 and 3.5 SD of the protein, either way, in both replicates (recomputed)
erlotinib = compound: C#Cc1cccc(Nc2ncnc3cc(OCCOC)c(OCCOC)cc23)c1 [erlotinib]
Procedure, shortened: (§1)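 The values are log-two fold changes in thermal stability compared with solvent controls and come from duplicates. They were obtained by TMTpro 16plex LC-MS/MS, with channel sums equalised, on the supernatant after 21,000xg for 90 min. That supernatant came from crude K562 extract at 1 mg/mL protein treated with 10 μM compound for 30 min, heated for 3 min across 48°C-58°C, pooled and brought to 0.5% NP-40 at 4°C.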

[1] = compound: C/C(=N\NC(=O)C1=CC(=CC=C1)S(=O)(=O)N2CCOCC2)/C3=C(C=CC(=C3)Cl)O
Procedure, shortened: as §1

[2] = compound: C1=CC(=CC=C1C2=NC3=C(N2)C=C(C=C3)C(=O)N)OC4=CC=C(C=C4)Cl
Procedure, shortened: as §1

[3] = compound: C1=CC2=C(C=CC(=C2)/C=C\3/C(=O)NC(=NCC4=CC=CS4)S3)N=C1
Procedure, shortened: as §1

[4] = compound: C1=CC2=NC=CN=C2C=C1/C=C/3\C(=O)NC(=O)S3
Procedure, shortened: as §1

[5] = compound: C1=CC=C(C=C1)C2=NC(=C(N2)C3=CC=NC=C3)C4=CC(=C(C=C4)Cl)O
Procedure, shortened: as §1

[6] = compound: C1=CC=C2C(=C1)C3=NNC4=CC=CC(=C43)C2=O
Procedure, shortened: as §1

[7] = compound: C1CCN(C1)C(=O)NC2=CC=CC(=C2)NC3=NC=C(C(=N3)NCCC4=CN=CN4)Br
Procedure, shortened: as §1

[8] = compound: C1CN(CCC1(CC2=CC=C(C=C2)Cl)N)C3=NC=NC4=C3C=CN4
Procedure, shortened: as §1

IRAK-1-4 Inhibitor I = compound: C1COCCN1CCN2C3=CC=CC=C3N=C2NC(=O)C4=CC(=CC=C4)[N+](=O)[O-] [IRAK-1-4 Inhibitor I]
Procedure, shortened: as §1

ibrutinib = compound: C=CC(=O)N1CCC[C@@H](n2nc(-c3ccc(Oc4ccccc4)cc3)c3c(N)ncnc32)C1 [ibrutinib]
Procedure, shortened: as §1

[9] = compound: CC(=O)c1cnc2ccc(-c3cc(Cl)c(O)c(Cl)c3)nc2c1N[C@H]1CC[C@H](CN(C)C)CC1
Procedure, shortened: as §1

ralimetinib = compound: CC(C)(C)Cn1c(N)nc2ccc(-c3[nH]c(C(C)(C)C)nc3-c3ccc(F)cc3)nc21 [ralimetinib]
Procedure, shortened: as §1

[10] = compound: CC(C)(O)CC(=O)NCCn1ccc2ncnc(Nc3ccc(Oc4cccc(C(F)(F)F)c4)c(Cl)c3)c21
Procedure, shortened: as §1

[11] = compound: CC(C)C1=C2N=C(C=C(N2N=C1)NCC3=CC=CC=C3)NCCCCCCN
Procedure, shortened: as §1

[12] = compound: CC1=C(C(CC(=O)N1)C2=CC=C(C=C2)C(F)(F)F)C(=O)NC3=C(C=C4C(=C3)C=NN4)F
Procedure, shortened: as §1

[13] = compound: CC1=C(C2=C(C=C1)C(=O)C3=CC=CC=C3N2CCCN)C
Procedure, shortened: as §1

[14] = compound: CC1=C(C=C(C=C1)NC(=O)C2=CC(=CC=C2)C(C)(C)C#N)NC3=CC4=C(C=C3)N=CN(C4=O)C
Procedure, shortened: as §1

[15] = compound: CC1=C(C=C(C=C1)NC(=O)C2=CC(=CC=C2)N(C)C)NC(=O)C3=CC=C(C=C3)O
Procedure, shortened: as §1

[16] = compound: CC1=CC=C(C=C1)SC2=C3C=C(SC3=CN=C2)C(=O)N
Procedure, shortened: as §1

Measured: log2 fold change

TMOD1 (UniProt P28289)
inactive: erlotinib 0.002 | [1] -0.091 | [2] 0.018 | [3] 0.018 | [4] -0.001 | [5] 0.003 | [6] 0.013 | [7] -0.005 | [8] -0.002 | IRAK-1-4 Inhibitor I 0.012 | ibrutinib 0.002 | [9] 0.007 | ralimetinib -0.015 | [10] -0.02 | [11] 0 | [12] -0.004 | [13] 0.006 | [14] 0 | [15] 0.016 | [16] -0.019

TOMM6 (UniProt Q96B49)
inactive: erlotinib -0.092 | [1] -0.049 | [2] 0.036 | [3] -0.046 | [4] -0.077 | [6] 0.005 | [7] -0.108 | [8] -0.015 | ibrutinib 0.12 | [11] -0.035 | [13] -0.143

TMEM9 (UniProt Q9P0T7)
inactive: erlotinib -0.368 | [1] 0.021 | [2] -0.046 | [3] 0.052 | [4] 0.056 | [5] 0.045 | [6] -0.001 | IRAK-1-4 Inhibitor I 0.005 | ibrutinib 0.017 | [9] -0.029 | ralimetinib 0.046 | [10] -0.043 | [11] -0.047 | [12] 0.037 | [13] -0.11 | [14] 0.061 | [15] 0.028 | [16] -0.08

TNKS (UniProt O95271)
inactive: erlotinib 0.064 | [1] -0.024 | [2] -0.036 | [3] -0.005 | [5] 0.052 | [6] -0.01 | [7] -0.061 | [8] -0.02 | IRAK-1-4 Inhibitor I -0.073 | [9] 0.038 | ralimetinib -0.04 | [10] 0.022 | [11] -0.045 | [12] -0.001 | [13] -0.076 | [14] 0.004 | [15] 0.006 | [16] 0.124

TNNC2 (UniProt P02585)
inactive: erlotinib -0.048 | [1] 0.032 | [2] 0.044 | [3] 0.004 | [5] -0.043 | [6] 0.031 | [7] 0.061 | [8] 0.071 | IRAK-1-4 Inhibitor I -0.016 | [9] -0.031 | ralimetinib 0.015 | [10] 0.013 | [11] 0.031 | [12] -0.022 | [13] -0.029 | [14] -0.036 | [15] 0.003 | [16] 0.016

TPCN1 isoform 3 (UniProt Q9ULQ1)
inactive: erlotinib -0.074 | [1] -0.081 | [2] 0.108 | [3] -0.089 | [4] 0.064 | [5] 0.02 | [6] 0.037 | [7] -0.008 | [8] 0.02 | IRAK-1-4 Inhibitor I 0.04 | ibrutinib -0.046 | [9] -0.007 | ralimetinib -0.095 | [10] -0.068 | [11] -0.001 | [14] 0.001 | [15] -0.009 | [16] 0.027

TMEM245 (UniProt Q9H330)
inactive: erlotinib 0.008 | [1] -0.032 | [2] 0.031 | [3] 0.006 | [4] -0.033 | [5] 0.012 | [6] -0.003 | [7] -0.03 | [8] -0.038 | IRAK-1-4 Inhibitor I 0.058 | ibrutinib -0.008 | [9] 0.016 | ralimetinib 0.035 | [10] 0.005 | [11] -0.043 | [12] -0.04 | [13] 0.042 | [14] -0.045 | [15] -0.044 | [16] -0.046

TNIP2 (UniProt Q8NFZ5)
inactive: erlotinib 0.086 | [1] -0.354 | [2] -0.378 | [3] 0.212 | [4] 0.076 | [6] -0.304 | [7] -0.12 | [8] 0.156 | ibrutinib 0.114 | [9] -0.028 | [11] 0.08 | [12] -0.018 | [14] 0.11 | [16] 0.078

TMEM19 (UniProt Q96HH6)
inactive: erlotinib -0.055 | [1] -0.05 | [2] -0.2 | [3] -0.013 | [5] -0.042 | [6] 0.01 | [7] -0.027 | [8] -0.018 | IRAK-1-4 Inhibitor I 0.006 | [9] 0.032 | ralimetinib 0.169 | [10] 0.007 | [11] 0.129 | [14] -0.152 | [15] 0.037 | [16] 0.188

TOM1 (UniProt O60784)
inactive: erlotinib -0.438 | [1] -0.036 | [2] -0.044 | [3] -0.018 | [4] -0.016 | [6] 0.013 | [7] -0.008 | [8] 0.111 | ibrutinib 0.043 | [9] -0.069 | [11] -0.393 | [13] -0.003 | [16] -0.028

TMEM214 (UniProt Q6NUQ4)
inactive: erlotinib 0.051 | [1] -0.031 | [2] 0.07 | [3] 0.05 | [4] 0.005 | [5] -0.033 | [6] -0.051 | [7] -0.062 | [8] 0.043 | IRAK-1-4 Inhibitor I -0.005 | ibrutinib 0.036 | [9] 0.022 | ralimetinib 0.017 | [10] -0.034 | [11] 0.023 | [12] 0.022 | [13] 0.155 | [14] -0.028 | [15] -0.015 | [16] 0

TMEM94 isoform 2 (UniProt Q12767)
inactive: erlotinib 0.243 | [1] 0.098 | [2] -0.017 | [3] -0.005 | [4] -0.005 | [5] -0.225 | [6] -0.215 | [7] -0.036 | [8] 0.14 | IRAK-1-4 Inhibitor I 0.16 | ibrutinib -0.111 | [9] -0.138 | ralimetinib -0.035 | [10] 0.064 | [11] 0.034 | [13] -0.042 | [14] -0.059 | [15] -0.013 | [16] -0.094
